The results in this text go back to PubChem BioAssay AID256 (DTP/NCI, 2004).

The list shows only some results of the screen, not a fair sample: it is rich in T/C values a quarter to a half above the control, in often repeated tests (any T/C) and in doses without a T/C. Other doses and runs of a compound stand elsewhere. T/C gives the treated animals as a percentage of the vehicle group. Some doses have a count of surviving animals in place of a T/C: the source files T/C as zero there, which appears to mark a toxic dose or a test without result, not a measured value. Some survivor counts are full or nearly so, which does not show that the dose was tolerated: survival well below the control is almost never listed, so the zero probably covers shortened survival too. Counts of survivors are from the toxicity check (mostly the fifth day) where no day follows; animals may have died later. Schedules are NCI's codes, taken here to give the interval after Q, in days (D) or hours (H), and the number of doses after X.

In the assay the test system is CD2F1 mice, L1210 leukemia ip, survival T/C. The assay can be described thus: NCI In Vivo Anticancer Drug Screen. Data for tumor model L1210 Leukemia (intraperitoneal) in CD2F1 (CDF1) mice. The settings on record: T/C endpoint: mean survival time, higher T/C = longer survival. In a few lines:
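Each value reflects a quotient of treated over vehicle control outcomes in mice with a transplanted tumor.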

For the compound `CN(C)c1nc2c(c(=O)n(C)c(=O)n2C)n1C`, the survivor count (dose: 200.0 mg/kg/injection, schedule: Q01DX005 (ip), vehicle: distilled water + Tween-80) is 1 of 6. On to `Cc1ccc2nc(-c3ccc(NC(=O)Nc4cccc(F)c4)cc3)sc2c1`, for which the survivor count (dose: 200.0 mg/kg/injection, schedule: Q01DX009 (ip), vehicle: saline with Tween-80) was 2 of 3. `NNC(=O)c1ccc(N)cc1`: the survivor count runs as follows: (dose: 200.0 mg/kg/injection, schedule: Q04DX003 (ip), vehicle: Klucel (hydroxypropylcellulose) (HPC)) 5 of 6; (dose: 400.0 mg/kg/injection, schedule: Q04DX003 (ip), vehicle: Klucel (hydroxypropylcellulose) (HPC)) 0 of 6.

Turning to `COc1ccc(N/C=C/C2=[N+](C)c3ccccc3C2(C)C)c(OC)c1`, the survivor count (dose: 400.0 mg/kg/injection, schedule: Q04DX003 (ip), vehicle: saline) was 0 of 6.
